Data as given in PubChem BioAssay AID1508597 (Cure First, 2020).

Purpose: 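Knock-downs altering ovarian cancer cell survival with or without PARP inhibitor rucaparib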 (primary screen)
Cells: human ovarian carcinoma lines grown from tumours: OCI-P5x (papillary serous) and OCI-C5x (clear cell)
Reagents: siRNA pool against human genes, 1.25 pmol siRNA per well
Timing: 72 h or 96 h, depending on the cell culture
Treatment: rucaparib 20 µM (about IC30) or vehicle, present until read-out
Detection: 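Luminescent ATP-based viability assay read 72 or 96 h after transfection, depending on culture, given as normalised percent viability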
Reading the numbers: viability, normalised: higher = more viable cells remaining
Rule for the call: 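a well counts as a hit if its normalised viability is under 80 percent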
Calls: active = viability under 80%; inactive = viability 80% or more
Here is a random part of about 2,100 reagents. 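Calls flag viability under 80% in either arm, not effects specific to rucaparib; the reference for percent is not stated.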 The record does not give: the 100% reference.

SREBF1, rucaparib or vehicle Rucaparib, cell line OCI-C5x (clear cell), technical replicate 1
- viability, normalised (%): 74.5
- Outcome: active

SREBF1, rucaparib or vehicle Rucaparib, cell line OCI-C5x (clear cell), technical replicate 2
- viability, normalised (%): 64.6
- Outcome: active

SREBF1, rucaparib or vehicle Rucaparib, cell line OCI-C5x (clear cell), technical replicate 3
- viability, normalised (%): 45
- Outcome: active

SREBF1, rucaparib or vehicle Rucaparib, cell line OCI-P5x (serous), technical replicate 1
- viability, normalised (%): 63.6
- Outcome: active

SREBF1, rucaparib or vehicle Rucaparib, cell line OCI-P5x (serous), technical replicate 2
- viability, normalised (%): 62.5
- Outcome: active

SREBF1, rucaparib or vehicle Rucaparib, cell line OCI-P5x (serous), technical replicate 3
- viability, normalised (%): 46.8
- Outcome: active

SREBF1, rucaparib or vehicle Vehicle, cell line OCI-C5x (clear cell), technical replicate 1
- viability, normalised (%): 29.6
- Outcome: active

SREBF1, rucaparib or vehicle Vehicle, cell line OCI-C5x (clear cell), technical replicate 2
- viability, normalised (%): 61.1
- Outcome: active

SREBF1, rucaparib or vehicle Vehicle, cell line OCI-C5x (clear cell), technical replicate 3
- viability, normalised (%): 44.7
- Outcome: active

SREBF1, rucaparib or vehicle Vehicle, cell line OCI-P5x (serous), technical replicate 1
- viability, normalised (%): 68.5
- Outcome: active

SREBF1, rucaparib or vehicle Vehicle, cell line OCI-P5x (serous), technical replicate 2
- viability, normalised (%): 71.2
- Outcome: active

SREBF1, rucaparib or vehicle Vehicle, cell line OCI-P5x (serous), technical replicate 3
- viability, normalised (%): 87.5
- Outcome: inactive

CACNA1G, rucaparib or vehicle Rucaparib, cell line OCI-C5x (clear cell), technical replicate 1
- viability, normalised (%): 50.8
- Outcome: active

CACNA1G, rucaparib or vehicle Rucaparib, cell line OCI-C5x (clear cell), technical replicate 2
- viability, normalised (%): 53.8
- Outcome: active

CACNA1G, rucaparib or vehicle Rucaparib, cell line OCI-C5x (clear cell), technical replicate 3
- viability, normalised (%): 62.2
- Outcome: active

CACNA1G, rucaparib or vehicle Rucaparib, cell line OCI-P5x (serous), technical replicate 1
- viability, normalised (%): 105
- Outcome: inactive

CACNA1G, rucaparib or vehicle Rucaparib, cell line OCI-P5x (serous), technical replicate 2
- viability, normalised (%): 99.1
- Outcome: inactive

CACNA1G, rucaparib or vehicle Rucaparib, cell line OCI-P5x (serous), technical replicate 3
- viability, normalised (%): 83.3
- Outcome: inactive

CACNA1G, rucaparib or vehicle Vehicle, cell line OCI-C5x (clear cell), technical replicate 1
- viability, normalised (%): 62.5
- Outcome: active

CACNA1G, rucaparib or vehicle Vehicle, cell line OCI-C5x (clear cell), technical replicate 2
- viability, normalised (%): 68.2
- Outcome: active

CACNA1G, rucaparib or vehicle Vehicle, cell line OCI-C5x (clear cell), technical replicate 3
- viability, normalised (%): 52.4
- Outcome: active

CACNA1G, rucaparib or vehicle Vehicle, cell line OCI-P5x (serous), technical replicate 1
- viability, normalised (%): 86.9
- Outcome: inactive

CACNA1G, rucaparib or vehicle Vehicle, cell line OCI-P5x (serous), technical replicate 2
- viability, normalised (%): 89
- Outcome: inactive

CACNA1G, rucaparib or vehicle Vehicle, cell line OCI-P5x (serous), technical replicate 3
- viability, normalised (%): 75.3
- Outcome: active

PCDHB14, rucaparib or vehicle Rucaparib, cell line OCI-C5x (clear cell), technical replicate 1
- viability, normalised (%): 33.6
- Outcome: active

PCDHB14, rucaparib or vehicle Rucaparib, cell line OCI-C5x (clear cell), technical replicate 2
- viability, normalised (%): 36.5
- Outcome: active

PCDHB14, rucaparib or vehicle Rucaparib, cell line OCI-C5x (clear cell), technical replicate 3
- viability, normalised (%): 29.3
- Outcome: active

PCDHB14, rucaparib or vehicle Rucaparib, cell line OCI-P5x (serous), technical replicate 1
- viability, normalised (%): 23.1
- Outcome: active

PCDHB14, rucaparib or vehicle Rucaparib, cell line OCI-P5x (serous), technical replicate 2
- viability, normalised (%): 29.6
- Outcome: active

PCDHB14, rucaparib or vehicle Rucaparib, cell line OCI-P5x (serous), technical replicate 3
- viability, normalised (%): 28
- Outcome: active

PCDHB14, rucaparib or vehicle Vehicle, cell line OCI-C5x (clear cell), technical replicate 1
- viability, normalised (%): 39.4
- Outcome: active

PCDHB14, rucaparib or vehicle Vehicle, cell line OCI-C5x (clear cell), technical replicate 2
- viability, normalised (%): 30.2
- Outcome: active

PCDHB14, rucaparib or vehicle Vehicle, cell line OCI-C5x (clear cell), technical replicate 3
- viability, normalised (%): 24.9
- Outcome: active

PCDHB14, rucaparib or vehicle Vehicle, cell line OCI-P5x (serous), technical replicate 1
- viability, normalised (%): 33.5
- Outcome: active

PCDHB14, rucaparib or vehicle Vehicle, cell line OCI-P5x (serous), technical replicate 2
- viability, normalised (%): 34.4
- Outcome: active

PCDHB14, rucaparib or vehicle Vehicle, cell line OCI-P5x (serous), technical replicate 3
- viability, normalised (%): 50.7
- Outcome: active
